Test results as given in patent publication US20200384066A1.
Results are given in words; binding and its absence hold for the method and conditions named. Some entries that bind do so weakly or less than the wild type.

Sequences of proteins named here, by UniProt entry; tags and fusion partners are left off. Residues count along the entry.
UniProt P03950, residues 25-147: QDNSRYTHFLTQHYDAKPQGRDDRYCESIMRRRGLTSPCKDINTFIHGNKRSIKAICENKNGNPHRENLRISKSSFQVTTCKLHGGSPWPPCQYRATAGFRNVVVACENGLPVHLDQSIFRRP

What was measured:
angiogenin [1] = target: angiogenin (UniProt P03950); experiment: biopanning of the Ph.D.-12 library on coated angiogenin; clone frequency (11 of 57) and RELIC/INFO analysis
angiogenin [2] = target: angiogenin (UniProt P03950); experiment: phage ELISA on coated angiogenin
angiogenin [3] = target: angiogenin (UniProt P03950); experiment: phage ELISA on coated angiogenin (FIG. 3)

Measured: binding

WPYWNHHSHNNV (peptide, not shown: large carriers) [WV peptide-bearing phage]
binds: all assays above
